Laboratory results from PMC11984960.
These are yes or no findings as the source states them, for the method shown. In cells and extracts the contact can be indirect. A yes stands for co-enrichment or nearness to the bait. Other partners may have been found. A no says only that the protein was not detected with the bait.

Sequences of proteins named here, by UniProt entry; tags and fusion partners are left off.
UniProt Q96ST8: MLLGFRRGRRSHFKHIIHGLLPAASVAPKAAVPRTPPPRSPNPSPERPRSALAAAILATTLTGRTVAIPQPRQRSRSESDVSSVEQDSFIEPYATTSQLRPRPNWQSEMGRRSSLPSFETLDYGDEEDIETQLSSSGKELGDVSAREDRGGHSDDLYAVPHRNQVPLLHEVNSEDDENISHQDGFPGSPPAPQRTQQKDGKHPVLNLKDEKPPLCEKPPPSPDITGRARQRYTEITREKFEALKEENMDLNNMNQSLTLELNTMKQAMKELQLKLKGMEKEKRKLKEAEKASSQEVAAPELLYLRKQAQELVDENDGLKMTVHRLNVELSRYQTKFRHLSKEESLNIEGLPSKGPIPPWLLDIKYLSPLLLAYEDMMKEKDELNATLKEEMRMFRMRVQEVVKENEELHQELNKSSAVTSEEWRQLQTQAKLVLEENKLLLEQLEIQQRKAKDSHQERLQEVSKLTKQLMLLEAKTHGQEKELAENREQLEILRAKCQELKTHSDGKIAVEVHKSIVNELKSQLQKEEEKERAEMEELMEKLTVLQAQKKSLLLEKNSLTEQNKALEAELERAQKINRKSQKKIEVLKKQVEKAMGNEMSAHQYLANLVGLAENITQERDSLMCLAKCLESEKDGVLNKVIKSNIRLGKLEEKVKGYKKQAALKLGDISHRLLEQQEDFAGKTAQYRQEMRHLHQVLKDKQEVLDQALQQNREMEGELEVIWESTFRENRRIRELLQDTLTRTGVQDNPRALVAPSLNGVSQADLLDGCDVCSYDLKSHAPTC
UniProt Q9HBI5: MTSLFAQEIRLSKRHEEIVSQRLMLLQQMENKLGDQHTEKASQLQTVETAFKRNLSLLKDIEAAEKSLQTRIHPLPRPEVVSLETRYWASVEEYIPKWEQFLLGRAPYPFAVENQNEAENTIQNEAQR
UniProt A6NIH7: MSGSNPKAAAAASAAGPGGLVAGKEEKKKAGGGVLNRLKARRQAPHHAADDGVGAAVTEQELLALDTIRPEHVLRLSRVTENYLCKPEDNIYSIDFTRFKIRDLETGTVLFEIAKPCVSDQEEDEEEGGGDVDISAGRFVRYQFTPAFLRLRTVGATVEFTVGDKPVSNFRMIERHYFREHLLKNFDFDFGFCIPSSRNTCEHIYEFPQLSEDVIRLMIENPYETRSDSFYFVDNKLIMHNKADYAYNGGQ

Target: N-terminally LAP-tagged CEP89 (Centrosomal Protein 89), full length (human) (UniProt Q96ST8)
Assay: affinity purification with mass spectrometry; tandem affinity purification of N-terminally LAP-tagged CEP89 from confluent RPE-FRT9 cell lysate: GFP antibody beads, TEV cleavage, S-protein agarose; washes with 200 mM KCl, 50 mM HEPES-KOH pH 7.4, 0.05% NP-40; eluate analysed by silver staining and LC-MS/MS

Substance | binding
CEP15, endogenous (from UniProt Q9HBI5 1-128) | binds
UNC119B, endogenous (from UniProt A6NIH7 1-251) | no binding
